The list shows only some results of the screen, not a fair sample: it is rich in T/C values a quarter to a half above the control, in often repeated tests (any T/C) and in doses without a T/C. Other doses and runs of a compound stand elsewhere. T/C: endpoint of the treated group in % of that of the vehicle group. Some doses have a count of surviving animals in place of a T/C: the source files T/C as zero there, which appears to mark a toxic dose or a test without result, not a measured value. Some survivor counts are full or nearly so, which does not show that the dose was tolerated: the source hardly ever lists a survival T/C far under the control, and the zero likely stands for such cases as well. Counts of survivors are from the toxicity check (mostly the fifth day) where no day follows; animals may have died later. Schedules are NCI's codes, read here as Q, the interval in days (D) or hours (H), X, the number of doses. Some schedules carry Z or #; the key to these is not given. Some doses were run more than once; the values are given in rising order. Where survival is the endpoint, the PubChem record calls one and a half times the control and up active, and a quarter to a half above the control has no call in these data; cut-offs in other NCI protocols can differ. Some T/C values are followed by the survivors on the day toxicity was checked, most often the fifth; without a count, all were alive then. Brackets with × give the number of equal values in this list.
Test system: L1210 leukemia ip in BDF1 mice, survival T/C
Assay: NCI In Vivo Anticancer Drug Screen. Data for tumor model L1210 Leukemia (intraperitoneal) in B6D2F1 (BDF1) mice
Conditions: higher T/C = longer survival

For Nc1n[nH]c(N)n1, which T/C (T/C endpoint: mean survival time, dose: 500.0 mg/kg/injection, schedule: Q01DX Z (ip), vehicle: other) is on record?
Its T/C is 144 % of control.

And the T/C (T/C endpoint: mean survival time, dose: 500.0 mg/kg/injection, schedule: Q03HX024 (ip), vehicle: saline)?
The T/C was 293 [9 of 10 alive], 306 [9 of 10 alive], 321, 390 % of control.

What about the T/C (T/C endpoint: mean survival time, dose: 512.0 mg/kg/injection, schedule: Q## X024 (ip), vehicle: other) of the same compound?
Its T/C is 135 % of control.

And the T/C (T/C endpoint: mean survival time, dose: 512.0 mg/kg/injection, schedule: Q## X044 (ip), vehicle: other)?
The T/C was 140 % of control.

And the T/C (T/C endpoint: mean survival time, dose: 512.0 mg/kg/injection, schedule: Q#A X012 (ip), vehicle: other)?
Its T/C is 127 % of control.

What about the T/C (T/C endpoint: mean survival time, dose: 540.0 mg/kg/injection, schedule: Q03HX024 (ip), vehicle: saline, evaluated on day 5) of the same compound?
Its T/C is 244 and 465 % of control.

And the T/C (T/C endpoint: mean survival time, dose: 540.0 mg/kg/injection, schedule: Q03HX024 (ip), vehicle: saline, evaluated on day 45)?
Its T/C is 244 % of control.

What about the T/C (T/C endpoint: mean survival time, dose: 540.0 mg/kg/injection, schedule: Q03HX024 (ip), vehicle: saline, evaluated on day 60) of the same compound?
Its T/C is 465 % of control.

What about the T/C (T/C endpoint: mean survival time, dose: 625.0 mg/kg/injection, schedule: Q03HX032 (ip), vehicle: saline) of the same compound?
The T/C was 142 % of control.

What about the survivor count (T/C endpoint: mean survival time, dose: 750.0 mg/kg/injection, schedule: Q01DX Z (ip), vehicle: methylcellulose (MC)) of the same compound?
The survivor count was 3 of 6.

And the T/C (T/C endpoint: mean survival time, dose: 800.0 mg/kg/injection, schedule: Q01DX006 (iv), vehicle: saline)?
The T/C was 133 % of control.

What about the T/C (T/C endpoint: mean survival time, dose: 800.0 mg/kg/injection, schedule: Q01DX009 (ip), vehicle: saline, evaluated on day 30) of the same compound?
Its T/C is 100, 123, 133, 134, 136, 140, 141, 143, 145, 150, 154, 159, 161 % of control.

And the T/C (T/C endpoint: mean survival time, dose: 800.0 mg/kg/injection, schedule: Q01DX009 (ip), vehicle: saline, evaluated on day 60)?
Its T/C is 131, 145, 150 % of control.

And the T/C (T/C endpoint: mean survival time, dose: 800.0 mg/kg/injection, schedule: Q01DX009 (ip), vehicle: saline, run until all animals had died)?
Its T/C is 142 % of control.

And the T/C (T/C endpoint: mean survival time, dose: 800.0 mg/kg/injection, schedule: Q01DX009 (oral), vehicle: water)?
Its T/C is 128 % of control.

What about the T/C (T/C endpoint: mean survival time, dose: 800.0 mg/kg/injection, schedule: Q01DX009 (sc), vehicle: saline) of the same compound?
The T/C was 127 % of control.

And the T/C (T/C endpoint: mean survival time, dose: 800.0 mg/kg/injection, schedule: Q01DX Z (oral), vehicle: saline)?
The T/C was 136 % of control.

And the survivor count (T/C endpoint: mean survival time, dose: 800.0 mg/kg/injection, schedule: Q#A X010 (ip), vehicle: saline)?
Its survivor count is 6 of 6.

What about the T/C (T/C endpoint: mean survival time, dose: 810.0 mg/kg/injection, schedule: Q03HX024 (ip), vehicle: saline, evaluated on day 5) of the same compound?
The T/C was 104 and 235 % of control.

What about the T/C (T/C endpoint: mean survival time, dose: 810.0 mg/kg/injection, schedule: Q03HX024 (ip), vehicle: saline, evaluated on day 45) of the same compound?
The T/C was 104 % of control [9 of 10 alive].

And the T/C (T/C endpoint: mean survival time, dose: 810.0 mg/kg/injection, schedule: Q03HX024 (ip), vehicle: saline, evaluated on day 60)?
The T/C was 235 % of control.

And the T/C (T/C endpoint: mean survival time, dose: 900.0 mg/kg/injection, schedule: Q01DX005 (ip), vehicle: water)?
The T/C was 134 % of control.

What about the survivor count (T/C endpoint: mean survival time, dose: 1000.0 mg/kg/injection, schedule: Q03HX008 (oral), vehicle: water) of the same compound?
Its survivor count is 5 of 8.

What about the survivor count (T/C endpoint: mean survival time, dose: 1000.0 mg/kg/injection, schedule: Q03HX024 (oral), vehicle: water) of the same compound?
Its survivor count is 5 of 8.

And the survivor count (T/C endpoint: mean survival time, dose: 1000.0 mg/kg/injection, schedule: Q06HX016 (ip), vehicle: saline)?
The survivor count was 4 of 7 and 5 of 7.

What about the T/C (T/C endpoint: mean survival time, dose: 1000.0 mg/kg/injection, schedule: Q## X006 (oral), vehicle: water) of the same compound?
Its T/C is 126 % of control.

What about the T/C (T/C endpoint: mean survival time, dose: 1024.0 mg/kg/injection, schedule: Q## X048 (ip), vehicle: other) of the same compound?
Its T/C is 143 % of control.

What about the T/C (T/C endpoint: mean survival time, dose: 1024.0 mg/kg/injection, schedule: Q## X088 (ip), vehicle: other) of the same compound?
The T/C was 143 % of control.

And the T/C (T/C endpoint: mean survival time, dose: 1600.0 mg/kg/injection, schedule: Q01DX005 (ip), vehicle: saline)?
Its T/C is 138 % of control.

What about the T/C (T/C endpoint: mean survival time, dose: 1600.0 mg/kg/injection, schedule: Q01DX009 (ip), vehicle: Klucel (hydroxypropylcellulose) (HPC)) of the same compound?
Its T/C is 134 and 138 % of control.

What about the T/C (T/C endpoint: mean survival time, dose: 1600.0 mg/kg/injection, schedule: Q01DX009 (ip), vehicle: saline, evaluated on day 30) of the same compound?
Its T/C is 91, 97, 122, 124, 129, 140 (2×), 143 (2×), 152, 161, 163 [5 of 6 alive], 168 % of control.

And the T/C (T/C endpoint: mean survival time, dose: 1600.0 mg/kg/injection, schedule: Q01DX009 (ip), vehicle: saline, evaluated on day 60)?
Its T/C is 147, 197, 202 % of control.

What about the T/C (T/C endpoint: mean survival time, dose: 1600.0 mg/kg/injection, schedule: Q01DX009 (ip), vehicle: saline, run until all animals had died) of the same compound?
Its T/C is 141 % of control.

What about the T/C (T/C endpoint: mean survival time, dose: 1600.0 mg/kg/injection, schedule: Q01DX009 (oral), vehicle: water) of the same compound?
Its T/C is 140 % of control.

What about the T/C (T/C endpoint: mean survival time, dose: 1600.0 mg/kg/injection, schedule: Q01DX009 (sc), vehicle: saline) of the same compound?
Its T/C is 136 % of control.

What about the T/C (T/C endpoint: mean survival time, dose: 1600.0 mg/kg/injection, schedule: Q01DX017 (ip), vehicle: water) of the same compound?
The T/C was 131 % of control.

What about the T/C (T/C endpoint: mean survival time, dose: 1600.0 mg/kg/injection, schedule: Q01DX Z (oral), vehicle: carboxymethylcellulose (CMC)) of the same compound?
The T/C was 145 % of control.

And the T/C (T/C endpoint: mean survival time, dose: 1600.0 mg/kg/injection, schedule: Q02DX005 (ip), vehicle: saline)?
The T/C was 132 % of control.

And the T/C (T/C endpoint: mean survival time, dose: 1600.0 mg/kg/injection, schedule: Q12HX018 (ip), vehicle: water)?
Its T/C is 148 % of control.

What about the T/C (T/C endpoint: mean survival time, dose: 1600.0 mg/kg/injection, schedule: Q## X024 (ip), vehicle: saline) of the same compound?
Its T/C is 131 % of control.

What about the T/C (T/C endpoint: mean survival time, dose: 1800.0 mg/kg/injection, schedule: Q01DX009 (ip), vehicle: water) of the same compound?
The T/C was 134 % of control.

What about the T/C (T/C endpoint: mean survival time, dose: 1800.0 mg/kg/injection, schedule: Q## X018 (ip), vehicle: saline) of the same compound?
Its T/C is 136 % of control.

And the survivor count (T/C endpoint: mean survival time, dose: 2000.0 mg/kg/injection, schedule: Q01DX Z (ip), vehicle: other)?
The survivor count was 6 of 6.

What about the T/C (T/C endpoint: mean survival time, dose: 2048.0 mg/kg/injection, schedule: Q## X044 (ip), vehicle: other) of the same compound?
The T/C was 125 % of control.

And the T/C (T/C endpoint: mean survival time, dose: 2048.0 mg/kg/injection, schedule: Q#A X012 (ip), vehicle: other)?
The T/C was 141 % of control.

What about the T/C (T/C endpoint: mean survival time, dose: 3200.0 mg/kg/injection, schedule: Q01DX Z (oral), vehicle: carboxymethylcellulose (CMC)) of the same compound?
The T/C was 125 % of control.

And the survivor count (T/C endpoint: mean survival time, dose: 3200.0 mg/kg/injection, schedule: Q01DX Z (oral), vehicle: saline)?
Its survivor count is 5 of 6.

And the survivor count (T/C endpoint: mean survival time, dose: 4000.0 mg/kg/injection, schedule: Q01DX005 (oral), vehicle: water)?
Its survivor count is 6 of 8.

What about the survivor count (T/C endpoint: mean survival time, dose: 4000.0 mg/kg/injection, schedule: Q01DX009 (ip), vehicle: saline) of the same compound?
The survivor count was 7 of 10.

What about the survivor count (T/C endpoint: mean survival time, dose: 4000.0 mg/kg/injection, schedule: Q01DX009 (oral), vehicle: water) of the same compound?
The survivor count was 6 of 8.

What about the T/C (T/C endpoint: mean survival time, dose: 4000.0 mg/kg/injection, schedule: Q04DX003 (ip), vehicle: saline) of the same compound?
Its T/C is 143 % of control.

And the T/C (T/C endpoint: mean survival time, dose: 4000.0 mg/kg/injection, schedule: Q04DX003 (oral), vehicle: water)?
Its T/C is 139 % of control.

And the survivor count (T/C endpoint: mean survival time, dose: 4096.0 mg/kg/injection, schedule: Q## X024 (ip), vehicle: other)?
Its survivor count is 5 of 10.

What about the survivor count (T/C endpoint: mean survival time, dose: 4096.0 mg/kg/injection, schedule: Q## X044 (ip), vehicle: other) of the same compound?
The survivor count was 0 of 10.

And the survivor count (T/C endpoint: mean survival time, dose: 4096.0 mg/kg/injection, schedule: Q## X088 (ip), vehicle: other)?
The survivor count was 9 of 10.

And the survivor count (T/C endpoint: mean survival time, dose: 7200.0 mg/kg/injection, schedule: Q## X024 (ip), vehicle: saline)?
The survivor count was 2 of 6.

And the survivor count (T/C endpoint: mean survival time, dose: 8192.0 mg/kg/injection, schedule: Q## X024 (ip), vehicle: other)?
The survivor count was 0 of 10.

And the survivor count (T/C endpoint: mean survival time, dose: 8192.0 mg/kg/injection, schedule: Q## X048 (ip), vehicle: other)?
The survivor count was 0 of 10.

And the T/C (T/C endpoint: median survival time, dose: 400.0 mg/kg/injection, schedule: Q## X004 (ip), vehicle: water)?
Its T/C is 127 % of control.

What about the T/C (T/C endpoint: median survival time, dose: 800.0 mg/kg/injection, schedule: Q## X004 (ip), vehicle: water) of the same compound?
The T/C was 144 % of control.

And the T/C (T/C endpoint: median survival time, dose: 1600.0 mg/kg/injection, schedule: Q## X004 (ip), vehicle: water)?
Its T/C is 133 % of control.

And the survivor count (T/C endpoint: median survival time, dose: 3200.0 mg/kg/injection, schedule: Q## X004 (ip), vehicle: water)?
Its survivor count is 4 of 8.

From PubChem BioAssay AID248 (DTP/NCI, 2004)
